# Article PMC12799421, “Inhibition of constitutive activity of the atypical chemokine receptor 3 by the small-molecule inverse agonist VUF16840” (Molecular Pharmacology, 2025)
# Protein sequences, listed by entry. Tags and fused reporters are not part of them.
# UniProt P25106: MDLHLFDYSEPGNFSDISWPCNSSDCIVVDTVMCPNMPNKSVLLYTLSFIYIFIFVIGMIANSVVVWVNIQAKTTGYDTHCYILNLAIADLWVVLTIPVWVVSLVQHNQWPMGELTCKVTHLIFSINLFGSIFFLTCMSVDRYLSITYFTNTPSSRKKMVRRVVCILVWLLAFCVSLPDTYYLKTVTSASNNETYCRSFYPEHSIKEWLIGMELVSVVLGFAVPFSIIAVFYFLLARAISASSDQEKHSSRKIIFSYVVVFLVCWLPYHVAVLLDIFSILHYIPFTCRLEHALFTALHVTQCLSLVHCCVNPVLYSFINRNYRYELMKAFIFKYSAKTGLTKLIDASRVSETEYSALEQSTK
# UniProt P32121: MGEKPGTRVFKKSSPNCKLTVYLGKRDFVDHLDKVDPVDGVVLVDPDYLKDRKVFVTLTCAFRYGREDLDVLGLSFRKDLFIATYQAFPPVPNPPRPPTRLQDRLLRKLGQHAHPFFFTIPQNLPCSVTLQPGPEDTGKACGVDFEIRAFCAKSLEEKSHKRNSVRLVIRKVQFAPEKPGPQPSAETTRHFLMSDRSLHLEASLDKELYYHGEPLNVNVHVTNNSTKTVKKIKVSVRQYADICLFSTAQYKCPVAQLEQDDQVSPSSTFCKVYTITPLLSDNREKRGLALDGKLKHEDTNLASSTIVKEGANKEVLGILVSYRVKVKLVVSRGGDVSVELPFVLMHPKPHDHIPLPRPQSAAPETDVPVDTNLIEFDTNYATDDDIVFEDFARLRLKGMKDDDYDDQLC
# UniProt P32120: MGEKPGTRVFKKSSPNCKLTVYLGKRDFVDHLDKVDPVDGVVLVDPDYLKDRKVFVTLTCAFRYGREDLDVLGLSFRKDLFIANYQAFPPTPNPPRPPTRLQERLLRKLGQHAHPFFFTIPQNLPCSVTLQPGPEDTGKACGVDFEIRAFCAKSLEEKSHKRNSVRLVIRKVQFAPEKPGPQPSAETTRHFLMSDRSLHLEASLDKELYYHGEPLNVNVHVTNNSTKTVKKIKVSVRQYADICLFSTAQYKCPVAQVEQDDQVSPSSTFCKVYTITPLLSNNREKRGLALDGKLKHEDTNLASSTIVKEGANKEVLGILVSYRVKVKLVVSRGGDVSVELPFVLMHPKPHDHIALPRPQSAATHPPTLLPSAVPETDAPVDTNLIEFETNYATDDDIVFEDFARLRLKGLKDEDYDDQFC
# UniProt P21146: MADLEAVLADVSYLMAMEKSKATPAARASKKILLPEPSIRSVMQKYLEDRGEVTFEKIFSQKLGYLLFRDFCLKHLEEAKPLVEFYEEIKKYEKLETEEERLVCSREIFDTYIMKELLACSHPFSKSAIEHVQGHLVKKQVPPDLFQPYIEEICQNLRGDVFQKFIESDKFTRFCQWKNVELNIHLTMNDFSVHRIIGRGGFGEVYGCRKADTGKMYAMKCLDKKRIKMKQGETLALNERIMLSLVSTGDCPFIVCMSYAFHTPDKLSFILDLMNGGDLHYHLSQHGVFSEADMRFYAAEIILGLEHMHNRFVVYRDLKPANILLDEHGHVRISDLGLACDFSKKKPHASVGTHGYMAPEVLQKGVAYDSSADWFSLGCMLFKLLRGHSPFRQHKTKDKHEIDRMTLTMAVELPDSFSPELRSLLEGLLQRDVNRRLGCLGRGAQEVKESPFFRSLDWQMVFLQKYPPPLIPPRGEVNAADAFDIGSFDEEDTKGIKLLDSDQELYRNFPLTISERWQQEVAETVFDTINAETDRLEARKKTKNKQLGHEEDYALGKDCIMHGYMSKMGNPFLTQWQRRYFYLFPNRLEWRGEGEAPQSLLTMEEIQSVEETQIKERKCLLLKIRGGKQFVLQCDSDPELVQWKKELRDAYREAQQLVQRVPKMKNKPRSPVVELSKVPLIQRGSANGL
# Results are given in words; binding and its absence hold for the method and conditions named. In cells and extracts the contact can be indirect. Some binding calls cover weakened binding; strength is not graded here. For some of these results: Sequences can lack the tags named with a protein.
# Columns and labels:
# SmBiT-clathrinA = molecular target: T1, SmBiT-clathrinA (UniProt P09496); assay: split reporter; NanoBiT complementation of β-arrestin2-LgBiT and SmBiT-clathrin A in HEK293T cells co-transfected with ACKR3; basal and with VUF15485 or VUF16840; 37 °C
# T1 sequence: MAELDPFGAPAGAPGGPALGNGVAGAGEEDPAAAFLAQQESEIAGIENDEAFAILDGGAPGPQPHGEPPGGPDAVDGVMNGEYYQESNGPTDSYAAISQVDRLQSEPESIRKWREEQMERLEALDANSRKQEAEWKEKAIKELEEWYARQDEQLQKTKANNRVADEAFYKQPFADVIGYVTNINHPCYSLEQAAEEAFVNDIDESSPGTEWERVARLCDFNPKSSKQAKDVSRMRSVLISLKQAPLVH
# hACKR3-Rluc8 (human) = hACKR3-Rluc8 (human) (UniProt P25106); assay: FRET or BRET; BRET between Rluc8-fused chemokine receptor (ACKR3-Rluc8 or CXCR4-Rluc8) and mVenus fusion proteins in transiently transfected HEK293T cells; basal and with CXCL11, CXCL12, VUF15485 or VUF16840
# [1] = molecular target: T2, hCCR3 C-terminally tagged with SmBiT (chemokine receptor screen) (human) (UniProt P51677); assay: split reporter; NanoBiT chemokine receptor screen: receptor C-terminally tagged with SmBiT and β-arrestin2 N-terminally fused to LgBiT in HEK293T cells; 1 μM VUF16840 or chemokine agonist; 20 minutes read
# T2 sequence: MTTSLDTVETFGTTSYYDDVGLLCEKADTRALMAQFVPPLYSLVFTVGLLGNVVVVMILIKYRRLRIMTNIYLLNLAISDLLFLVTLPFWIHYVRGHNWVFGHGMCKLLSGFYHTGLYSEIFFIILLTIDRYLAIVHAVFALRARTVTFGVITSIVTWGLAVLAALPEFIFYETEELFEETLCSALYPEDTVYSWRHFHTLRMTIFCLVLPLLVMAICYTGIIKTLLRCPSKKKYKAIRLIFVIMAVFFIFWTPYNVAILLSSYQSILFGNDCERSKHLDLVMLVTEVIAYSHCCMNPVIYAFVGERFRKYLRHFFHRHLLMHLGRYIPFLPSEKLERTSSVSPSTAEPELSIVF
binding (hACKR3-Rluc8 (human)),also measured,Substance
,binding (SmBiT-clathrinA): binds,β-arrestin2-LgBiT (from UniProt P32121 1-409)
binds,,β-arrestin2-mVenus (from UniProt P32120 1-420)
binds,,GRK2-mVenus (from UniProt P21146 1-689) (enzyme)
,binding [1]: binds,"β-arrestin2, N-terminally fused to the LgBiT sensor (chemokine receptor screen) (from UniProt P32121 1-409)"
